These are yes or no findings as the source states them, for the method shown. In cells and extracts the contact can be indirect. These calls come from enrichment with a bait or labelling near it, and not all partners need be listed.

The target in the assay is cTAGE5-EGFP fusion protein (knock-in, cTAGE5-EGFP-KI MEF cells) (mouse (endogenous in MEF)). Kind of assay: affinity purification with mass spectrometry; co-IP with GFP antibody from cTAGE5-EGFP-KI MEF cell lysates, precipitated proteins identified by LC-MS/MS; IgG as control.

B1: lamin B1 (LMNB1) (protein, UniProt P14733 1-588)
chain: MATATPVQQQRAGSRASAPATPLSPTRLSRLQEKEELRELNDRLAVYIDKVRSLETENSALQLQVTEREEVRGRELTGLKALYETELADARRALDDTARERAKLQIELGKFKAEHDQLLLNYAKKESDLSGAQIKLREYEAALNSKDAALATALGDKKSLEGDLEDLKDQIAQLEASLSAAKKQLADETLLKVDLENRCQSLTEDLEFRKNMYEEEINETRRKHETRLVEVDSGRQIEYEYKLAQALHEMREQHDAQVRLYKEELEQTYHAKLENARLSSEMNTSTVNSAREELMESRMRIESLSSQLSNLQKESRACLERIQELEDMLAKERDNSRRMLSDREREMAEIRDQMQQQLSDYEQLLDVKLALDMEISAYRKLLEGEEERLKLSPSPSSRVTVSRASSSRSVRTTRGKRKRVDVEESEASSSVSISHSASATGNVCIEEIDVDGKFIRLKNTSEQDQPMGGWEMIRKIGDTSVSYKYTSRYVLKAGQTVTVWAANAGVTASPPTDLIWKNQNSWGTGEDVKVILKNSQGEEVAQRSTVFKTTIPEEEEEEEEEPIGVAVEEERFHQQGAPRASNKSCAIM
For B1, the binding result is reported as “binds”.

The record behind these values is publication PMC12507394.
